# ± gives the standard deviation of the averaged measurements. The list shows a part of the results. Single values are uncertain, as repeats are few or missing.
# Tested on: Plasmodium berghei sporozoites
# Experiment: residual sporozoite gliding motility relative to DMSO control; higher = less inhibition of motility
# Conditions: 10 µM; incubation time 30 min
# Description: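 GFP-expressing Plasmodium berghei salivary gland sporozoites (about 2000 per well, 384-well plate, RPMI with 3% BSA) were incubated 30 min with MMV Malaria Box compounds at 10 uM, then imaged at 1 Hz for 30 s. Sporozoites moving more than one parasite length were counted manually and expressed as percentage residual motility relative to DMSO controls. The pilot screen was a single assay per compound; apparent hits were repeated up to two more times. 'No observable inhibition' in the pilot screen is encoded as inactive (>50% residual, active false), a coarse placeholder rather than a measured value.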
row,Structure (SMILES),residual sporozoite gliding motility [%]
1,COc1ccc(NC(=O)C2c3ccccc3C(=O)N(CC(C)C)C2c2cccs2)cc1 (stereo not given),> 50
2,Cc1sc(NC(=O)c2ccccc2)c(C(c2cccs2)N2CCN(c3ccccc3)CC2)c1C (stereo not given),> 50
3,COc1ccc(CNC(=O)c2cc3c(=O)n4ccccc4nc3n(CCc3ccccc3)c2=N)cc1,> 50
4,CCOc1ccc(Nc2c3ccccc3nc3ccccc23)cc1,> 50
5,c1ccc(/C2=N/c3ccccc3/N=C(/c3ccccc3)c3ccccc32)cc1,> 50
6,CCCc1c(C)nc2ccc(Br)cc2c1O,> 50
7,CC(C)(C)c1ccc2c(c1)CN(Cc1ccc(Cl)cc1)CO2,> 50
8,CN1CCN(c2c3c(c(C#N)c4nc5ccccc5n24)CCC3)CC1,> 50
9,CCC(C)NCC(O)(c1ccc(Cl)cc1)c1ccc(Cl)cc1 (stereo not given),> 50
10,Cc1ccc(C)c(-c2csc(Nc3ccc(C)c(C)c3)n2)c1,> 50
11,CCOC(=O)c1c[nH]c2c(CC)cccc2c1=O,> 50
12,Cc1ccc(CN2CCC(C(=O)Nc3ccc(-c4cc5ccccc5[nH]4)cc3)CC2)o1,> 50
13,Nc1nc(Nc2cccc(F)c2)nc2ccccc12,> 50
14,Cc1ccc2nc(C)cc(Nc3cccc(C(F)(F)F)c3)c2c1,> 50
15,CCN(CC)CCCNc1nc(-c2ccc(Cl)cc2)nc2ccccc12,> 50
16,CC1(c2ccccc2)Nc2ccccc2-c2nc3ccccc3n21 (stereo not given),> 50
17,Cc1cccc(-n2ncc3c(O)nc(-n4nc(C)cc4NC(=O)c4cc5ccccc5o4)nc32)c1,> 50
18,CCN(CC)CCCNc1ccnc2cc3ccccc3cc12,> 50
19,CN1c2ccccc2N(C)C1c1ccc2c(c1)OCO2,> 50
20,COc1cccc(NC(=O)[C@H](C(C)C)n2c(=O)[nH]c3ccccc3c2=O)c1,> 50

# Molecules from the list above that contain an aryl methoxy group:
row,Structure (SMILES),residual sporozoite gliding motility [%]
1,COc1ccc(NC(=O)C2c3ccccc3C(=O)N(CC(C)C)C2c2cccs2)cc1 (stereo not given),> 50
3,COc1ccc(CNC(=O)c2cc3c(=O)n4ccccc4nc3n(CCc3ccccc3)c2=N)cc1,> 50
20,COc1cccc(NC(=O)[C@H](C(C)C)n2c(=O)[nH]c3ccccc3c2=O)c1,> 50

# (cont.)

row,Structure (SMILES),residual sporozoite gliding motility [%]
1,COc1ccc(C2c3ccc4ccccc4c3Oc3ncn(CCCn4ccnc4)c(=N)c32)cc1OC (stereo not given),> 50
2,COc1ccc(N2CCN(C(CNC(=O)C3CCCCC3)c3ccc4c(c3)OCO4)CC2)cc1 (stereo not given),> 50
3,Cc1c(C)n(Cc2ccc(F)cc2)c2ccc(C(=O)NCc3ccco3)cc12,> 50
4,COc1ccc(-c2cc3c(SCC(=O)Nc4cc(C(F)(F)F)ccc4Cl)nccn3n2)cc1,> 50
5,Cc1cc(NC(=O)c2ccc(-c3ccccc3)cc2)no1,> 50
6,CCOc1cccc2sc(N(Cc3cccnc3)C(=O)C3CCCCC3)nc12,> 50
7,O=C(Nc1ccc(F)c(Cl)c1)Nc1ccc(Cl)c(Cl)c1,22 ± 6.6
8,CC(Oc1ccc(NC(=O)c2cccs2)cc1)C(=O)c1ccc(Cl)cc1 (stereo not given),> 50
9,CCOC(=O)c1cnc2ccc(OC)cc2c1NCc1ccccc1,> 50
10,CCn1nc(-c2ccc(C(=O)OC)cc2)nc2c(=O)n(C)c(=O)nc1-2,> 50
11,COc1ccc(CCN2CCC(CN(C)Cc3cnn(-c4ccccc4)c3)CC2)cc1,> 50
12,COc1ccc(N2CCN(C(CNC(=O)CC(C)(C)C)c3ccc4c(c3)OCO4)CC2)cc1 (stereo not given),> 50
13,O=C1c2ccc3c4c(ccc(c24)C(=O)N1CCCCO)C(=O)N(CCCCO)C3=O,> 50
14,CCOC(=O)C1(Cc2ccccc2)CCN(Cc2cccc(OC)c2O)CC1,> 50
15,COc1ccccc1CNC(=O)CCn1c(=O)[nH]c2ccccc2c1=O,> 50
16,c1ccc(CNc2nc(Nc3ccccc3)nc3ccccc23)cc1,> 50
17,COc1cc(C(=O)Nc2nc3c(cc4c5c(cccc53)CC4)s2)cc(OC)c1OC,> 50
18,Cc1cc(N(C)C)nc(Nc2ccc(NC(=O)Nc3ccccc3)cc2)n1,> 50
19,CCCCNCC(O)(c1ccc(Cl)cc1)c1ccc(Cl)cc1,> 50
20,CC(C)(C)c1ccc(C(=O)Nc2c3c(nn2-c2cccc(Cl)c2)CSC3)cc1,> 50

# — the supplement of paper PMC6119338
